Experimental findings from publication PMC7425896 (2020) are described below.

For this test, the target named is α-Synuclein fibrils (preformed fibrils of recombinant human wild-type αSyn) (human, UniProt P37840 1-140). In words: ATTO488-labelled.

B1: Hsc70 SBD-lid (α-helical sub-domain of the Substrate Binding Domain) (domain or fragment)
chain: LSKEDIERMVQEAEKYKAEDEKQRDKVSSKNSLESYAFNMKATVEDEKLQGKINDEDKQKILDKCNEIINWLDKNQTAEKEEFEHQQKELEKVCNPIITKLYQSAGGMPGGMPGGFPGGGAPPSGGASSGPTIEEVD
modifications: ATTO488 (aminoreactive dye) on primary amines; 0.05 to 0.08 dye molecules incorporated on average
The term Kd denotes the free concentration of one partner at which half of the binding sites on the other are occupied at equilibrium, for simple one-to-one binding. As to B1, the Kd amounted to 450 nM.
